According to doi:10.1101/2022.10.28.514146:
No constants are given. Whether binding was seen depends on the method and setting. Binding seen in cells or lysates may run through a third protein. Some results given as binding are weak or reduced against the parent protein; the word gives no strength. Sequences can lack the tags named with a protein.

The chains behind the UniProt entries cited, without tags or fusion partners. Where a name states a change or a piece, a line headed by the entry shows the natural chain unless it says otherwise. A line that says so, or that is headed by a name, gives the form on record, which may keep a tag or linker.
UniProt Q9H2G2: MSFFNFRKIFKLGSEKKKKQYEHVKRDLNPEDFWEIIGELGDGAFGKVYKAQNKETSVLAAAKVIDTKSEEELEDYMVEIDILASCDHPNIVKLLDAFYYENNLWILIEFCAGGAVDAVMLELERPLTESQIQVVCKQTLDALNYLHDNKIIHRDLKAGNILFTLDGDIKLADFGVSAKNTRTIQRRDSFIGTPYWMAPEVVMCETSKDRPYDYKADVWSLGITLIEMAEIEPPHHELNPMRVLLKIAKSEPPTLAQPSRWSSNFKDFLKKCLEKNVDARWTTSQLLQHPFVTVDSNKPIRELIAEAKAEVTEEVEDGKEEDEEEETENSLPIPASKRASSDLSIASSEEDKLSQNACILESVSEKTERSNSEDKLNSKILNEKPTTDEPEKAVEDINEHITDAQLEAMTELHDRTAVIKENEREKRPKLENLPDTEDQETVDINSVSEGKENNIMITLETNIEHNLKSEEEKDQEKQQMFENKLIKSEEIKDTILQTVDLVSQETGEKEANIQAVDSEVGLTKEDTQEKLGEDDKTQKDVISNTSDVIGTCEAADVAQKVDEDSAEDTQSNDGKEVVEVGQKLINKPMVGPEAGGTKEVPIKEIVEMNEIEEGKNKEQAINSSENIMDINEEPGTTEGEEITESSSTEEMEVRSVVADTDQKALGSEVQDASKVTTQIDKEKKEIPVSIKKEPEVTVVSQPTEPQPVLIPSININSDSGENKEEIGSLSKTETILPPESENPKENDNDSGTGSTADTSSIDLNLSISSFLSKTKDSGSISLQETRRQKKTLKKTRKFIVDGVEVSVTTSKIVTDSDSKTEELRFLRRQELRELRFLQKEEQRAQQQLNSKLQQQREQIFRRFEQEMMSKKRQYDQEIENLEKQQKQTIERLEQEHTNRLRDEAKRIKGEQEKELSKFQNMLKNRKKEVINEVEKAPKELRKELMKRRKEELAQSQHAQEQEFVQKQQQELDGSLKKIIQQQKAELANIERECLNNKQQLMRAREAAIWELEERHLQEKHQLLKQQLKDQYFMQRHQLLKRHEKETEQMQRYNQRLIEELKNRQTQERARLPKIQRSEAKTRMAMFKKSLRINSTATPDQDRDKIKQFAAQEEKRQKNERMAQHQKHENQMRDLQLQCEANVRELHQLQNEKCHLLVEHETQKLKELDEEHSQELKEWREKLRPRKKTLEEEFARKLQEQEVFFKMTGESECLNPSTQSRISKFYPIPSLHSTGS
STE20-like protein kinase (SLK), short isoform SLK-S, HA-tagged (Q9H2G2-2, form named): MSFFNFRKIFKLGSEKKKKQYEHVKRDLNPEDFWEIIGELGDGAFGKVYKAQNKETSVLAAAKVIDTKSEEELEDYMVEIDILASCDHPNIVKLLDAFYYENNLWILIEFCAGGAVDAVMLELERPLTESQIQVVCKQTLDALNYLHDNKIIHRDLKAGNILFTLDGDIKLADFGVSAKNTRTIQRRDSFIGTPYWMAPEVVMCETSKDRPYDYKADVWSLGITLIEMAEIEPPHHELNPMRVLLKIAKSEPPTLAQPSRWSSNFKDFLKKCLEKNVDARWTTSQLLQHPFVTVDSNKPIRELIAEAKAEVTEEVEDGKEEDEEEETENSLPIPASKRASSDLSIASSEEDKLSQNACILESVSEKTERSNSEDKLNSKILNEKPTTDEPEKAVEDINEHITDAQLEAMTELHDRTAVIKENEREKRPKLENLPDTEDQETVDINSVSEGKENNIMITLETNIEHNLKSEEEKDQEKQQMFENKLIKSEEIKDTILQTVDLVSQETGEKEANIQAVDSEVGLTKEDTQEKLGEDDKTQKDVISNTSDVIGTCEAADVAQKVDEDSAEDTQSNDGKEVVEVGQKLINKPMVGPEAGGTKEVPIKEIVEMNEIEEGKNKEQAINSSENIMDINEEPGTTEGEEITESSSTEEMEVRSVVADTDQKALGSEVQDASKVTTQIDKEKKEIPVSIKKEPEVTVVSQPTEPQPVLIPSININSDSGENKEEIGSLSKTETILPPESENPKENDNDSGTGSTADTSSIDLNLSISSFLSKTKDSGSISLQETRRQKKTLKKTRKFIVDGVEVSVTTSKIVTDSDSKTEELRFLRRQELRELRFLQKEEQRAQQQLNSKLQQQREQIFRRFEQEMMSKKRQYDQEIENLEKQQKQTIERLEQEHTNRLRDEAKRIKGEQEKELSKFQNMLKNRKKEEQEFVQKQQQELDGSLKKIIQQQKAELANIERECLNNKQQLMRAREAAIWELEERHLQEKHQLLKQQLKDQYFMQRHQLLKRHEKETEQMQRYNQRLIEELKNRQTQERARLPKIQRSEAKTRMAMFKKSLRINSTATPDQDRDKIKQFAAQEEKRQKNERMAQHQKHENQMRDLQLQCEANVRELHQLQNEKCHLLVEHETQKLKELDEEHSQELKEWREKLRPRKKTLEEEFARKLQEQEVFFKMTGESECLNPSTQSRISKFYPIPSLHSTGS

Target: T1, occludin, V5-tagged (UniProt Q16625)
T1 sequence: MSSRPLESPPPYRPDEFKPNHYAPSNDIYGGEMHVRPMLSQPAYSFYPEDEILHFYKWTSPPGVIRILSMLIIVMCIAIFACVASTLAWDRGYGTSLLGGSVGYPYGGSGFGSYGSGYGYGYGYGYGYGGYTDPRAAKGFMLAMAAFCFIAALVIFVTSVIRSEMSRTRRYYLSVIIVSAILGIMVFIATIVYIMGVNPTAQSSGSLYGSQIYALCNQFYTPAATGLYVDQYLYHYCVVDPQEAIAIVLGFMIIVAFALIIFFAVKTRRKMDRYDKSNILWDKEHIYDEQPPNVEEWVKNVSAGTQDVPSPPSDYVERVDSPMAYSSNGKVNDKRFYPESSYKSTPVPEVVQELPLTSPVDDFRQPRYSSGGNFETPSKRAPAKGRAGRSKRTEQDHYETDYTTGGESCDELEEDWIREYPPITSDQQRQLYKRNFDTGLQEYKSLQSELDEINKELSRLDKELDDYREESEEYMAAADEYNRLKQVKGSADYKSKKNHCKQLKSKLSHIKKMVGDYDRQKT
Test: co-IP

## STE20-like protein kinase (SLK), long isoform SLK-L, HA-tagged (from UniProt Q9H2G2 1-1235)
  binding: binds weakly

## STE20-like protein kinase (SLK), short isoform SLK-S, HA-tagged (from UniProt Q9H2G2-2 1-1204)
  binding: binds
